A short description of this data set: general procedure: solution-phase peptide synthesis; isobutylchloroformate/N-methylmorpholine (coupling); TFFH/collidine (cyclisation).

Consider “Boc-Val-MeLeu-Ala-(D)Ala-MeLeu-MeLeu-MeVal-MeBmt(OAc)-Abu-Sar-EtVal-OtBu”, for which, under “coupling step”, the step yield stood at 62%. In the case of “Boc-Val-MeLeu-Ala-(D)Ala-MeLeu-MeLeu-MeValMeBmt(OAc)-Abu-Sar-OH”, the step yield (late stage modification step) was 95%. Same read-out and setting: the value for “Boc-Val-MeLeu-Ala-(D)Ala-MeLeu-MeLeu-MeValMeBmt(OAc)-Abu-Sar-OMe” was 98%.

The values are drawn from patent US6927208B1 (Debiopharm S.A., priority 1998, dated 2005).
